From paper PMC4798761
No constants are given. Whether binding was seen depends on the method and setting.

Tests used:
[1] = target: human calumenin (68-315) (human) (UniProt O43852); assay: SEC-MALS; Superdex 200 Increase 10/300 GL coupled to MALS/DLS/Ri; 25 mM Tris-Cl pH 7.5, 150 mM NaCl, 2.5 mM CaCl2 (Ca2+-bound protein); both purified
[2] = target: human calumenin (68-315) (human) (UniProt O43852); assay: SEC-MALS; Superdex 200 Increase 10/300 GL coupled to MALS/DLS/Ri; 25 mM Tris-Cl pH 7.5, 150 mM NaCl, 2.5 mM EGTA (apo protein, no Ca2+); both purified

- binding [1]: no binding
- binding [2]: no binding
B1: human calumenin (68-315) (domain or fragment, UniProt O43852 68-315)
chain: ESKERLGKIVSKIDGDKDGFVTVDELKDWIKFAQKRWIYEDVERQWKGHDLNEDGLVSWEEYKNATYGYVLDDPDPDDGFNYKQMMVRDERRFKMADKDGDLIATKEEFTAFLHPEEYDYMKDIVVQETMEDIDKNADGFIDLEEYIGDMYSHDGNTDEPEWVKTEREQFVEFRDKNRDGKMDKEETKDWILPSDYDHAEAEARHLVYESDQNKDGKLTKEEIVDKYDLFVGSQATDFGEALVRHDEF
